PubChem BioAssay AID504793 – Drosophila RNAi Screening Center – 2011

Assay: 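Whole-genome screen for parts of the DNA damage checkpoint at G2/M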 (primary screen)
System: Drosophila S2R+ cells
Reagent: long dsRNA against Drosophila genes, about 0.25 µg dsRNA per well
Time to read-out: 4 days of dsRNA, then 4 hours of drug before read-out
Challenge: doxorubicin 0.5 µM for 4 hours to cause double-strand breaks, in cells also given a low, harmless dose of dsRNA against nbs to sensitise the assay
Read-out: 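Per-well count of mitotic cells stained for phospho-histone H3 after doxorubicin exposure, used as mitotic index; counts are raw and not normalised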
Direction: mitotic cells: higher = more cells in mitosis, weaker G2 arrest
Rule for the call: 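a call needs confirmation in secondary tests, with other dsRNAs and a check of mitotic timing without damage, not just a high primary count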
Meaning of the calls: active = confirmed in follow-up tests; inactive = not confirmed
The deposit covers about 23,000 reagents; this is a random part of those with a known target gene and a result. Over the whole deposit, 62 (0.27%) are marked active. 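Calls come from follow-up tests whose scores are not deposited, so confirmed genes may have low counts here; counts are not normalised per plate.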 Raw values vary from plate to plate and are shown uncorrected.

Target gene | DRSC id | mitotic cells, replicate 1 | activity call
Oga | DRSC15901 | 9 | inactive
CG9962 | DRSC00739 | 4 | inactive
CG9962 | DRSC27772 | 5 | inactive
CG13084 | DRSC02188 | 3 | inactive
CG12320 | DRSC14498 | 8 | inactive
ric8a | DRSC18093 | 8 | inactive
ric8a | DRSC24387 | 7 | inactive
CG13992 | DRSC02324 | 10 | inactive
Grip84 | DRSC20248 | 84 | inactive
Grip84 | DRSC26202 | 101 | inactive
Dab | DRSC11140 | 12 | inactive
CG15393 (retired record) | DRSC00407 | 12 | inactive
CG15393 (retired record) | DRSC27448 | 7 | inactive
boly | DRSC21629 | 12 | inactive
PlexB | DRSC17177 | 10 | inactive
CG13001 | DRSC24970 | 4 | inactive
gek | DRSC04688 | 2 | inactive
side-IV | DRSC14833 | 5 | inactive
inaF-B | DRSC18903 | 9 | inactive
Pld | DRSC04854 | 7 | inactive
Pld | DRSC24641 | 5 | inactive
PIG-F | DRSC11069 | 4 | inactive
PIG-F | DRSC27027 | 5 | inactive
CG8531 | DRSC07209 | 4 | inactive
CG14100 | DRSC10101 | 6 | inactive
TrxT | DRSC23117 | 6 | inactive
ND-B17 | DRSC01981 | 6 | inactive
Ect3 | DRSC15462 | 2 | inactive
Ect3 | DRSC25392 | 5 | inactive

Copied from the listing for reference:
Target gene | DRSC id | mitotic cells, replicate 1 | activity call
CG12320 | DRSC14498 | 8 | inactive
ric8a | DRSC18093 | 8 | inactive
ric8a | DRSC24387 | 7 | inactive
CG13992 | DRSC02324 | 10 | inactive

Continued:
Target gene | DRSC id | mitotic cells, replicate 1 | activity call
CG6753 | DRSC16108 | 6 | inactive
CG6753 | DRSC28449 | 6 | inactive
Tengl4 | DRSC15620 | 2 | inactive
ncd | DRSC17012 | 2 | inactive
CG10903 | DRSC14281 | 1 | inactive
ScpX | DRSC03430 | 5 | inactive
gol | DRSC04689 | 4 | inactive
CG32409 | DRSC08780 | 13 | inactive
CG32409 | DRSC25913 | 1 | inactive
CG1572 | DRSC19686 | 9 | inactive
Ir85a | DRSC14382 | 7 | inactive
Ir85a | DRSC29077 | 4 | inactive
Tsc1 | DRSC16890 | 7 | inactive
Tsc1 | DRSC27643 | 10 | inactive
CG11854 | DRSC14409 | 6 | inactive
isoQC | DRSC11790 | 3 | inactive
isoQC | DRSC28241 | 7 | inactive
